The record followed here is PubChem BioAssay AID662 (National Center for Advancing Translational Sciences (NCATS), 2007).

Where “and” joins values, the source holds several entries; their conditions need not be identical. Equal values may be shown once. The list shows a part of the results. Shown are side measurements of this screen, not its main read-out; they come without a call. The list favours compounds with an active or inconclusive main result. Words in brackets tell the shape of the fitted curve; partial curves, single points and poor fits give uncertain potencies.

The experiment is described as follows: Cell signaling CRE-BLA (Fsk stim). Conditions: CHO CRE-bla reporter (cAMP response element driving beta-lactamase), forskolin EC10, beta-lactamase ratio; measured here: 460 nm blue channel. The gist of the method:
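CRE-bla CHO cells stimulated with EC10 NKH 477 (water-soluble forskolin) and compound titrations, 3 h at 37C; beta-lactamase read with CCF4 after 2 h at room temperature. Activity from 460/530 nm emission ratio, AC50 values for positive or negative modulation.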
Regarding `CCCCn1c(N)c(C(=O)NCCN2CCOCC2)c2nc3ccccc3nc21`, the concentration at half-maximal activity (AC50) (as a rule, the concentration at which the activity in the assay is half-maximal) was 12.6 µM [rising, partial curve]. The same measure for `Cc1ccc2c(c1N)C(=O)c1ccccc1C2=O`: 10 µM [rising, full curve].

With `CCC[C@@](C)(COC(N)=O)COC(=O)NC(C)C`, the AC50 was 5.01 µM [falling, single point]. Take `c1ccc([C@H]2CNCc3ccccc32)cc1`: the AC50 was 25.1 µM [falling, partial curve, poor fit].

On to `O=P(/C(=N/O)N1CCCCC1)(N1CCOCC1)N1CCOCC1`, for which the half-maximal activity concentration (AC50) was 25.1 µM [rising, single point]. The same measure for `CC(=NCCCN1CCOCC1)c1c(O)n(Cc2ccccc2)c(=O)[nH]c1=O`: 0.01 µM [falling, full curve]. Take `COc1cc2cc(c1Cl)N(C)C(=O)C[C@H](OC(=O)C(C)C)[C@]1(C)O[C@@H]1[C@@H](C)[C@H]1C[C@](O)(NC(=O)O1)[C@@H](OC)/C=C\C=C(\C)C2`: the AC50 is 0.0126 µM [rising, full curve]. The same measure for `N#CSCSC#N`: 25.1 µM [falling, partial curve]; for `O=C(CCCN1CCC2(CC1)C(=O)NCN2c1ccccc1)c1ccc(F)cc1`: 31.6 µM [rising, single point] and 12.6 µM [rising, single point].

For the compound `CCC(=NCc1cccnc1)c1c(O)n(C2CCCCC2)c(=O)[nH]c1=O`, the AC50 was 12.6 µM [rising, single point]. Consider `C[N+]12CCC(CC1)C(C#N)(N1CCOCC1)C2` (centres undefined), for which the AC50 was 20 µM [falling, partial curve]. Take `COc1ccc(C(CC(=O)N2CCC3(CC2)OCCO3)NS(=O)(=O)c2ccc(OC)cc2)cc1` (centres undefined): the concentration at half-maximal activity (AC50) is 12.6 µM [falling, partial curve, poor fit]. The same measure for `CC(C)Oc1cccnc1N(C)C1CCN(Cc2ccccc2)CC1`: 25.1 µM [falling, partial curve, poor fit]; for `O=C(Cl)C(Cl)(Cl)Cl`: 12.6 µM [rising, single point]. As for `Cc1ccccc1-n1c(O)c(C=Nc2ccc(N(C)C)cc2)c(=O)[nH]c1=O`, the concentration at half-maximal activity (AC50) is 12.6 µM [rising, single point].

As for `ClC1=C(Cl)C2(Cl)C3C4CC(C5OC45)C3C1(Cl)C2(Cl)Cl` (centres undefined), the half-maximal activity concentration (AC50) is 12.6 µM [rising, single point]. With `C[C@H]1CCC[C@@H](O)CCC/C=C/c2cc(O)cc(O)c2C(=O)O1`, the AC50 was 5.01 µM [falling, single point]. Consider `COCCOC(=O)C1=C(N)Oc2c(c(=O)oc3ccccc23)C1c1ccncc1` (centres undefined), for which the half-maximal activity concentration (AC50) is 10 µM [rising, single point]. Regarding `O=C(C(Cc1ccccc1)NS(=O)(=O)c1cccc2nsnc12)N1CCC2(CC1)OCCO2` (centres undefined), the AC50 is 7.94 µM [falling, partial curve, poor fit]. In the case of `CN1CCc2cc3c(cc2[C@@H]1O)OCO3`, the concentration at half-maximal activity (AC50) is 10 µM [rising, partial curve]. Consider `C=CCN1CC[C@@]23c4c5ccc(O)c4O[C@H]2/C(=N\N=C2/CC[C@@]4(O)[C@H]6Cc7ccc(O)c8c7[C@@]4(CCN6CC=C)[C@@H]2O8)CC[C@]3(O)[C@@H]1C5`, for which the half-maximal activity concentration (AC50) was 31.6 µM [falling, single point]. Consider `Cc1nc2cc(C(F)(F)F)ccc2n1C1CCN(Cc2nnnn2Cc2ccc3c(c2)OCO3)CC1`, for which the concentration at half-maximal activity (AC50) was 25.1 µM [falling, single point]. As to `CC(c1ccc(F)cc1)n1cc(C(=O)NCc2ccc3c(c2)OCO3)nn1` (centres undefined), the AC50 is 1.58 µM [falling, partial curve]. In the case of `COc1cc2c(cc1O)[C@H]1Cc3ccc(OC)c(O)c3CN1CC2`, the AC50 was 12.6 µM [rising, single point]. For `Cc1cc(C)c(C(=O)CN2CCOCC2)c(C)c1`, the AC50 is 25.1 µM [rising, single point]. The same measure for `COC(=O)C(C)Oc1cc(C)cc2oc(=O)c3c(c12)CCC3` (centres undefined): 5.01 µM [rising, partial curve]; for `Cc1cccnc1-n1c(CN2C(=O)c3ccccc3C2=O)nc2ccccc2c1=O`: 0.251 µM [falling, full curve, poor fit].

For the compound `CCOC(=O)c1cncn1C(C)c1ccccc1` (centres undefined), the AC50 was 15.8 µM [falling, single point]. The same measure for `Cc1noc(C)c1C(=O)N1CCC2(CCCN(CC(C)C)C2)CC1`: 12.6 µM [rising, partial curve]. Regarding `COc1ccc2c(c1OC)C(=O)O[C@H]2[C@H]1c2cc3c(cc2CCN1C)OCO3`, the AC50 was 10 µM [rising, partial curve, poor fit]. With `CN1C(=O)c2ccccc2Sc2ccc(C(=O)N3CCC4(CC3)OCCO4)cc21`, the concentration at half-maximal activity (AC50) is 25.1 µM [falling, single point]. Take `C(=NC12CN3CN(CN(C3)C1)C2)c1cccnc1`: the AC50 is 0.0158 µM [falling, full curve, poor fit]. For the compound `O=C(c1cc2cc3ccc(Cl)cc3nc2o1)N1CCC2(CC1)OCCO2`, the AC50 was 0.631 µM [rising, full curve]. For `CC(C)(C)c1cc(C=C(C#N)C#N)cc(C(C)(C)C)c1O`, the concentration at half-maximal activity (AC50) is 1 µM [falling, full curve].

Turning to `CCn1nc(-c2ccccc2)nc2c(=O)n(C)c(=O)nc1-2`, the AC50 was 3.16 µM [falling, full curve].

Turning to `COCCNC(=O)c1c(NC(=O)c2ccco2)n(Cc2ccccc2)c2nc3ccccc3nc12`, the AC50 is 1 µM [rising, full curve]. As to `C[C@@H]1C[C@@H]([C@H](O)CC2CC(=O)NC(=O)C2)C(=O)[C@@H](C)C1`, the AC50 is 0.794 µM [falling, full curve]. The same measure for `Cc1cc(Br)ccc1N1C(=O)CC(=O)NC1=O`: 0.00631 µM [falling, full curve]; for `c1cncc([C@@H]2CCCCN2)c1`: 20 µM [falling, partial curve, poor fit]; for `CCOC(=O)c1c(C)n(COCCO)c2ccc(O)cc12`: 3.98 µM [falling, single point]. Take `O=P1(NCc2ccco2)COc2ccccc2OC1`: the AC50 is 0.0794 µM [falling, full curve, poor fit]. In the case of `O=c1c2ccccc2nc(-c2ccco2)n1-c1ccc(Br)cn1`, the AC50 is 3.98 µM [rising, single point].

Consider `CC[C@H](CO)NC(=O)[C@H]1C=C2c3cccc4[nH]cc(c34)C[C@H]2N(C)C1`, for which the AC50 is 2 µM [falling, partial curve, poor fit]. Take `Oc1ccc2[nH]cc(CCCCN3CC=C(c4ccccc4)CC3)c2c1`: the AC50 is 25.1 µM [falling, single point]. For the compound `CC(C)(C)[C@@]1(O)C[C@@H]2OC(=O)C[C@@]23C(=O)O[C@H]2OC(=O)[C@@H](O)[C@]231`, the half-maximal activity concentration (AC50) was 31.6 µM [falling, single point]. On to `Oc1c(Cl)c(Cl)cc(Cl)c1Cl`, for which the AC50 was 1 µM [rising, full curve, poor fit]. The same measure for `Clc1ccc(C(c2ccc(Cl)cc2)C(Cl)Cl)cc1`: 15.8 µM [falling, partial curve]. Regarding `CN(C=O)CP(=O)(O)CN(C)C=O`, the AC50 was 10 µM [rising, partial curve]. The same measure for `COc1ccc(CN2C(=O)CC(=O)NC2=O)cc1`: 12.6 µM [falling, single point]. The same measure for `Cc1cc([P+](=O)O)c(C)n1-c1ccc(Br)cc1`: 0.1 µM [falling, full curve]. For the compound `CC(C)(O)[C@H]1[C@H]2OC(=O)[C@@H]1[C@]1(O)C[C@H]3O[C@]34C(=O)O[C@H]2[C@]14C`, the AC50 is 25.1 µM [falling, single point].

Regarding `O[C@@H]1[C@H](O)[C@H]2[C@@H](O)CCN2C[C@@H]1O`, the AC50 was 15.8 µM [falling, partial curve, poor fit]. For `OC(COCc1ccc(Cl)cc1)CN1CC=C(c2ccccc2)CC1` (centres undefined), the AC50 was 3.98 µM [falling, single point]. The same measure for `ClC(Cl)=C(c1ccc(Cl)cc1)c1ccc(Cl)cc1`: 7.94 µM [rising, partial curve, poor fit] and 12.6 µM [rising, partial curve, poor fit]; for `O=C(O)C1=CCCN(CCOC(c2ccc(C(F)(F)F)cc2)c2ccc(C(F)(F)F)cc2)C1`: 25.1 µM [falling, partial curve, poor fit]. Consider `O=C(CCl)c1ccc(Cl)cc1Cl`, for which the AC50 is 7.94 µM [falling, partial curve, poor fit].

In the case of `CN[C@@H](C)[C@@H](O)c1ccccc1`, the AC50 was 25.1 µM [falling, partial curve]. Turning to `CCN(CC)C(=O)N[C@@H]1C=C2c3cccc4[nH]cc(c34)C[C@@H]2N(C)C1`, the concentration at half-maximal activity (AC50) is 12.6 µM [rising, single point]. Take `CCC1(c2ccccc2)C(=O)N(COC)C(=O)N(COC)C1=O`: the AC50 is 0.316 µM [rising, full curve]. The same measure for `O=C1/C(=C\c2ccccc2)C[C@@]2(O)[C@H]3Cc4ccc(O)c5c4[C@@]2(CCN3CC2CC2)[C@@H]1O5`: 15.8 µM [falling, partial curve, poor fit]. `CCCCCC[C@H]1C(=O)O[C@@H](C)[C@H](NC(=O)c2cccc(NC=O)c2O)C(=O)O[C@@H](C)[C@@H]1OC(=O)CC(C)C`: the half-maximal activity concentration (AC50) is 25.1 µM [falling, partial curve, poor fit]. Turning to `C[C@]12CC[C@H](O)C[C@@H]1CC[C@H]1[C@H]2CC[C@]2(C)C(=O)CC[C@@H]12`, the AC50 is 10 µM [rising, single point]. For the compound `O=C(CN1CCN(Cc2ccc(Cl)cc2)C1=O)N1CCC2(CC1)OCCO2`, the half-maximal activity concentration (AC50) was 15.8 µM [rising, single point]. Turning to `CCCNc1oc(-c2cccc3ccccc23)nc1C#N`, the AC50 is 25.1 µM [rising, partial curve].
